# According to PubChem BioAssay AID493014 (National Center for Advancing Translational Sciences (NCATS), 2011):
# Some of the results follow. Shown are side measurements of this screen, not its main read-out; they come without a call. Most of these compounds were active or inconclusive in the main read-out, so they are no random draw. Potencies come from curve fits of mixed quality, noted in brackets.
# Experiment: qHTS Assay to Find Inhibitors of Chronic Active B-Cell Receptor Signaling
# Details: ABC-DLBCL IkBa-CBG/CBR reporter, luminescence ratio (green luciferase fused to IkBa over red control in TMD8 lymphoma cells), 4 h
# Procedure, shortened: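 TMD8 ABC-DLBCL cells carrying doxycycline-inducible green luciferase fused to IkappaBalpha plus unfused red luciferase were exposed to compounds (up to 46 uM) for 4 hrs at 37C. Activity came from the overlap-corrected green/red luminescence ratio.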
# [1] = measured here: CBR red luminescence, cell number
# [2] = measured here: IkBa-CBG green luminescence
compound,measurement,setting,value
COc1ccccc1CN1CCN(C(=O)COc2ccccc2)CC1,AC50,[1],"25.9 µM [rising, single point]"
CCCNC(=O)N1[C@H]2CC[C@@H]1C(C(=O)OC)=C(c1ccc(-c3ccccc3)c(F)c1)C2,AC50,[1],"18.4 µM [falling, partial curve]"
CN1CCN(Cc2c(F)cccc2Cl)CC1,AC50,[1],"35.5 µM [falling, single point]"
O=c1[nH]c(=O)n(C2CCCCC2)c(O)c1/C=C/C=Nc1ccccc1,AC50,[1],"3.55 µM [rising, partial curve]"
O=C1NC(=O)C(CCc2ccccn2)(Cc2cccc(Cl)c2Cl)C(=O)N1c1ccc(Br)cc1 (stereo unspecified),AC50,[1],"9.2 µM [falling, partial curve]"
same,AC50,[2],"18.4 µM [rising, partial curve, poor fit]"
CCCCCCCCCCCCn1ccc(=N)cc1,AC50,[1],"11.2 µM [falling, partial curve]"
same,AC50,[2],"17.8 µM [rising, partial curve, poor fit]"
O=C1/C(=C\c2ccncc2)N2CCC1CC2,AC50,[1],"10 µM [falling, partial curve, poor fit]"
CC12CCC(=O)C=C1CCC1C2CCC2(C)C(O)CCC12 (stereo unspecified),AC50,[1],"17.8 µM [rising, single point]"
CC(=O)c1ccc(OC(=O)N(C)c2ccccc2)cc1,AC50,[1],"10 µM [rising, partial curve, poor fit]"
COC(=O)C1=C(c2ccccc2OCc2ccccc2)C[C@@H]2CC[C@H]1N2C(=O)NCCc1ccc(F)cc1,AC50,[1],"29.1 µM [falling, single point]"
OCC#CC[N+]1(CC#Cc2ccccc2)CCCC1,AC50,[1],"11.2 µM [rising, partial curve, poor fit]"
c1cc(CCN2CCCC2)ccn1,AC50,[1],"0.112 µM [falling, full curve, poor fit]"
Cc1nn(Cc2ccccc2)c(Cl)c1C(=O)Nc1ccc(OC(F)(F)F)cc1,AC50,[1],"0.0366 µM [rising, full curve, poor fit]"
COC(=O)C1=C(c2ccc(-c3ccccc3)c(F)c2)C[C@@H]2CC[C@H]1N2C(=O)NCCCOC(C)C,AC50,[1],"18.4 µM [falling, single point]"
CSCCC(N=Cc1c(O)n(-c2ccc(Br)cc2)c(=O)[nH]c1=O)C(=O)OC(C)(C)C (stereo unspecified),AC50,[1],"0.562 µM [falling, full curve, poor fit]"
CCOP(=O)(OCC)C(Nc1cc(Cl)cc(Cl)c1)c1cccc(O)c1 (stereo unspecified),AC50,[1],"11.2 µM [falling, partial curve]"
Cc1ccc(Cn2cccc(C(=O)Nc3nc4ccc(C)cc4s3)c2=O)cc1,AC50,[1],"11.2 µM [falling, partial curve, poor fit]"
COc1ccccc1N1CCN(Cc2cnc(-c3ccccc3)[nH]2)CC1,AC50,[1],"12.6 µM [rising, partial curve]"
Cc1cccc(-n2c(O)c(C)c(=O)[nH]c2=S)c1,AC50,[1],"35.5 µM [falling, single point]"
O=C1NC(=O)C2(Cc3ccccc3N3CCCC32)C(=O)N1c1ccc(Cl)cc1 (stereo unspecified),AC50,[1],"14.1 µM [falling, single point]"
O=C(O)CCn1cc(C=C2C(=O)NC(=S)NC2=O)c(-c2cccc(Cl)c2)n1,AC50,[1],"3.16 µM [falling, partial curve]"
CC(C)CC(c1nnnn1C(C)C)N1CCN(c2cccc(Cl)c2)CC1 (stereo unspecified),AC50,[1],"20 µM [falling, single point]"
Clc1ccc(CCC(Cn2ccnc2)Sc2c(Cl)cccc2Cl)cc1 (stereo unspecified),AC50,[1],"1.84 µM [falling, partial curve, poor fit]"
Cn1cnc([N+](=O)[O-])c1Sc1nnc(-c2cccnc2)n1C,AC50,[1],"35.5 µM [falling, single point]"
Nc1c(C(=O)OCc2ccccc2)c2nc3ccccc3nc2n1Cc1cccs1,AC50,[1],"1.3 µM [falling, full curve]"
CN(C)C(=O)Oc1ccc2c(c1)O/C(=C\c1ccccc1)C2=O,AC50,[1],"1 µM [rising, partial curve, poor fit]"
O=C1NC(=O)N(c2ccccc2)C(=O)/C1=C/C=C/c1ccco1,AC50,[1],"17.8 µM [rising, partial curve, poor fit]"
same,AC50,[2],"35.5 µM [falling, single point]"
CC(C)(C#CC(=O)O)OOC(c1ccccc1)(c1ccccc1)c1ccccc1,AC50,[1],"35.5 µM [rising, single point]"
CN1C(=O)C(=Cc2ccc(OCC(=O)Nc3ccccc3)cc2)C(=O)N(C)C1=O,AC50,[1],"20 µM [falling, single point]"
Nc1c2c(nc3sc4c(c13)CCCCC4)CCCC2,AC50,[1],"29.1 µM [falling, single point]"
COc1ccc(/C=C2\SC(=S)N(CC3CCCO3)C2=O)cc1 (stereo unspecified),AC50,[1],"11.2 µM [rising, partial curve, poor fit]"
COC(=O)C1=C(c2ccc(-c3ccccc3)c(F)c2)C[C@@H]2CC[C@H]1N2C(=O)NC1CC1,AC50,[1],"20.6 µM [falling, single point]"
CC(=NCC1CCCO1)c1c(O)n(-c2ccc(C)cc2)c(=O)[nH]c1=O (stereo unspecified),AC50,[1],"3.26 µM [rising, partial curve]"
O=c1[nH]c(CN2CC=C(c3ccccc3)CC2)nc2scc(-c3cccs3)c12,AC50,[1],"3.16 µM [falling, single point]"
CC(=O)c1cccc(OCC(=O)N2CCN(CC(=O)Nc3cccc(F)c3)CC2)c1,AC50,[1],"0.0517 µM [rising, full curve, poor fit]"
CCn1c(O)c(/C=N/NC(=O)c2ccncc2)c(=O)[nH]c1=S,AC50,[1],"20.6 µM [falling, partial curve]"
CC[C@@]1(O)C(=O)OCc2c1cc1n(c2=O)Cc2cc3c(NC(=O)CN)cccc3nc2-1,AC50,[1],"35.5 µM [falling, single point]"
same,AC50,[2],"8.91 µM [rising, partial curve]"
CC/C(=N\NC(=O)c1ccccc1)c1c(O)n(C2CCCCC2)c(=O)[nH]c1=O,AC50,[1],"2 µM [falling, full curve]"
Cc1c2ccncc2c(C)c2c1[nH]c1ccccc12,AC50,[1],"5.8 µM [falling, partial curve]"
COc1ccc(C(c2c(O)c3ccccc3oc2=O)c2c(C)n(C)n(-c3ccccc3)c2=O)cc1 (stereo unspecified),AC50,[1],"1.84 µM [falling, partial curve]"
CC(=O)c1cn(CC(=O)NCCc2c[nH]c3ccccc23)c2ccccc12,AC50,[1],"11.2 µM [falling, partial curve]"
O=C(N/N=C/c1c(O)n(C2CCCCC2)c(=S)[nH]c1=O)c1ccccc1O,AC50,[1],"7.08 µM [falling, partial curve]"
CC1(C)CC(CCNCc2ccc3c(c2)OCO3)(Cc2ccccc2)CCO1 (stereo unspecified),AC50,[1],"11.2 µM [falling, partial curve]"
same,AC50,[2],"14.1 µM [rising, partial curve, poor fit]"
O=C(CN1CCN(c2ccccc2F)CC1)Nc1cccnc1Cl,AC50,[2],"11.2 µM [falling, partial curve, poor fit]"
CC(=O)Nc1ccc(C(=O)OCC(=O)Nc2ccc(Cl)cc2C(=O)c2ccccc2)cc1,AC50,[1],"6.51 µM [rising, single point]"
Cc1cc(C)c(N=Cc2c(O)[nH]c(=O)[nH]c2=O)c(C)c1,AC50,[1],"22.4 µM [rising, single point]"
COC(=O)C(O)(c1ccc(NC(=S)NC(=O)c2ccccc2)cc1)C(F)(F)F (stereo unspecified),AC50,[1],"7.94 µM [falling, partial curve, poor fit]"
COc1ccc(-n2c(/C=C/c3ccc(O)c(OC)c3)nc3ccccc3c2=O)cc1,AC50,[1],"7.08 µM [falling, partial curve, poor fit]"
O=C(c1ccc(CNS(=O)(=O)c2ccccc2)cc1)N1CCC2(CC1)OCCO2,AC50,[1],"6.31 µM [rising, single point]"
Cc1ccc(S(=O)(=O)Oc2ccc(/C=N/NC(=O)c3cccnc3)cc2)cc1,AC50,[1],"17.8 µM [falling, single point]"
O=C(N/N=C/c1c(O)n(C2CCCCC2)c(=S)[nH]c1=O)c1ccccc1,AC50,[1],"0.794 µM [falling, full curve]"
C[C@@H]1C[C@H]2OC(=O)C3(CO3)[C@H]2[C@H](O)[C@]2(C)C(=O)C3OC3[C@@H]12 (stereo partly specified),AC50,[1],"3.98 µM [rising, partial curve, poor fit]"
same,AC50,[2],"0.501 µM [falling, full curve]"
C=C1[C@@H](C)[C@H]2[C@H](Cc3ccccc3)NC(=O)[C@]23OC(=O)/C=C/[C@H](O)CCC[C@@H](C)C/C=C/[C@H]3[C@@H]1O,AC50,[1],"12.6 µM [rising, partial curve, poor fit]"
O=c1c2ccccc2nc(/C=C\c2ccccc2[N+](=O)[O-])n1-c1ccccc1O,AC50,[1],"14.1 µM [falling, single point]"
Cc1ccccc1-n1c(O)c(/C=C2/C(c3ccccc3)=Nc3ccccc32)c(=O)[nH]c1=O,AC50,[1],"11.6 µM [falling, partial curve, poor fit]"
CCN(CC)C(=O)C1CCCN(c2ncnc3c2cnn3-c2cccc(C)c2)C1 (stereo unspecified),AC50,[1],"14.1 µM [falling, partial curve, poor fit]"
CN1CCC(O)(c2ccccc2)C2CCCC21 (stereo unspecified),AC50,[1],"16.4 µM [falling, single point]"
CCCCn1c(O)c(C(CC)=NCCN2CCOCC2)c(=O)[nH]c1=O,AC50,[1],"29.1 µM [falling, single point]"
Cn1cnc([N+](=O)[O-])c1Sc1ccc([N+](=O)[O-])cc1,AC50,[1],"25.1 µM [falling, single point]"
Cc1cc2ccccn2c1C(C[N+](=O)[O-])c1c(F)cccc1Cl (stereo unspecified),AC50,[1],"12.6 µM [falling, partial curve, poor fit]"

# Pulled one by one from above (4):
compound,measurement,setting,value
COC(=O)C1=C(c2ccc(-c3ccccc3)c(F)c2)C[C@@H]2CC[C@H]1N2C(=O)NC1CC1,AC50,[1],"20.6 µM [falling, single point]"
O=C1NC(=O)C(CCc2ccccn2)(Cc2cccc(Cl)c2Cl)C(=O)N1c1ccc(Br)cc1 (stereo unspecified),AC50,[2],"18.4 µM [rising, partial curve, poor fit]"
CN1CCN(Cc2c(F)cccc2Cl)CC1,AC50,[1],"35.5 µM [falling, single point]"
OCC#CC[N+]1(CC#Cc2ccccc2)CCCC1,AC50,[1],"11.2 µM [rising, partial curve, poor fit]"
